Earlier results in US11737985B2 (priority 2013, dated 2023).

Tests used:
[1] = biological target: T1, hNKCC1a (Homo sapiens, UniProt P55011); details: cited from earlier work
T1 sequence (P55011 1-1212): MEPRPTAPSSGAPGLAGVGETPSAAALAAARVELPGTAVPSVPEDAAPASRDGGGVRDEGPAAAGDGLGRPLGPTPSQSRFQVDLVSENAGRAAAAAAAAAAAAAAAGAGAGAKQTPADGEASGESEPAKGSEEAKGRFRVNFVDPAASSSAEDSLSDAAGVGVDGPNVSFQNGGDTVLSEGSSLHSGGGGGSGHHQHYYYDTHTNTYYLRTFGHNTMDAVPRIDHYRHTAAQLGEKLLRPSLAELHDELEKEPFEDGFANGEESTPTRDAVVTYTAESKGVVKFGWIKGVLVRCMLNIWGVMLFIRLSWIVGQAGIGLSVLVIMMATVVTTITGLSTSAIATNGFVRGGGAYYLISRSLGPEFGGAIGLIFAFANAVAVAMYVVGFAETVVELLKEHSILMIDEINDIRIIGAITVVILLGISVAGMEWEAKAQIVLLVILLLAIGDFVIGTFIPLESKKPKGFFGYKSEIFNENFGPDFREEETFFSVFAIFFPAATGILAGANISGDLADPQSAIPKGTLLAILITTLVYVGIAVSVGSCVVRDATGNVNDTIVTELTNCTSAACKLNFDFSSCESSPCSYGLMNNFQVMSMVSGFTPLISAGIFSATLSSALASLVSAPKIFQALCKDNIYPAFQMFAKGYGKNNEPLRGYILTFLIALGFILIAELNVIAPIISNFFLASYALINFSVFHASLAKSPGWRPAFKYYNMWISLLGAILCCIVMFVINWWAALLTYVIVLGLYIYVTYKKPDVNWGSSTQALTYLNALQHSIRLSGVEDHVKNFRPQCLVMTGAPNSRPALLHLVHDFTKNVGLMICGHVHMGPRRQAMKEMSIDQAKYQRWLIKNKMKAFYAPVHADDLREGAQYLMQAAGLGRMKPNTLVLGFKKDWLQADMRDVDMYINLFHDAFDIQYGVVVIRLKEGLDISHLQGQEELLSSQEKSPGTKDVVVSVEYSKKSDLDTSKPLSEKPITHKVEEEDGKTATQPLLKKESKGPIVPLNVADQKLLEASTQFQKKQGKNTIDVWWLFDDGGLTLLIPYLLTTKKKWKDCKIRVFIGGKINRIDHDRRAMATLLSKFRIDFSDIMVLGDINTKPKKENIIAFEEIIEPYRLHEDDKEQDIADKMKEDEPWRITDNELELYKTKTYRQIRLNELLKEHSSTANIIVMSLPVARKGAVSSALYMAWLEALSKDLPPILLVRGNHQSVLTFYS

[2] = biological target: T2, hNKCC1b (Homo sapiens, UniProt P55011); details: cited from earlier work
T2 sequence (P55011 1-1196 isoform P55011-3): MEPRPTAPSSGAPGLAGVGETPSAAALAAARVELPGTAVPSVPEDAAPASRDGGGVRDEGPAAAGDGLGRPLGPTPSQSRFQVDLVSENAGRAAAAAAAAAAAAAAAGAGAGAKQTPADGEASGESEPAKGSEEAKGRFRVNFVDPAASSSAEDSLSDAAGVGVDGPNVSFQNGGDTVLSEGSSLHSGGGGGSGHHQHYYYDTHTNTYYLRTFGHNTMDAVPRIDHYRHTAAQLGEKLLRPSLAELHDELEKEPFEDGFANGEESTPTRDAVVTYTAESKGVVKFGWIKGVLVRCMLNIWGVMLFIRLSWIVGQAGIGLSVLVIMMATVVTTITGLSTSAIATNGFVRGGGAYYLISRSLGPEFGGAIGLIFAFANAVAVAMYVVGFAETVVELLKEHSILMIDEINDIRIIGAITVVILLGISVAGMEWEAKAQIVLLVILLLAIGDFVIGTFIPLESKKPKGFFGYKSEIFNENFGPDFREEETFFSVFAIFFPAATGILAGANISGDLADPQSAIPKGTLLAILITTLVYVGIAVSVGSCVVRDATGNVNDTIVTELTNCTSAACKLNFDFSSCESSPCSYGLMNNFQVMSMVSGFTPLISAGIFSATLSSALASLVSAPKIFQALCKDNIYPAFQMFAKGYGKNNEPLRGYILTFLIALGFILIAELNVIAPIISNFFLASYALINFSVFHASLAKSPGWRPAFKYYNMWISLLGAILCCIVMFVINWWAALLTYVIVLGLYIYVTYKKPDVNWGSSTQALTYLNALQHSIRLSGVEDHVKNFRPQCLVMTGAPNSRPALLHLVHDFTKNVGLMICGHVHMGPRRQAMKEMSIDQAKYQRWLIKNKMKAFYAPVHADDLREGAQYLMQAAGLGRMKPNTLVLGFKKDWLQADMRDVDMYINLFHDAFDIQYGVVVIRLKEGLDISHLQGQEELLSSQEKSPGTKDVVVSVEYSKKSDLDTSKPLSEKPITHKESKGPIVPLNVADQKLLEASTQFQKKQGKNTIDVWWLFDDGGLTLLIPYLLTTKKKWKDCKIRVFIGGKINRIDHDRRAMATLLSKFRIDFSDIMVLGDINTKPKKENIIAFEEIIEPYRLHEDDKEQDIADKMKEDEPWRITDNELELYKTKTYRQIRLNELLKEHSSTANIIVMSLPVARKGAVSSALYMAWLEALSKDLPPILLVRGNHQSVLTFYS

## NS(=O)(=O)c1cc(C(=O)O)c(NCc2ccco2)cc1Cl [Furosemide]
[1]
  IC50: 5.2 µM
[2]
  IC50: 5.8 µM
